Values quoted from earlier work in US7579333B2 (Teva Pharmaceutical Industries Ltd., priority 2004, dated 2009).

System: femoral bone mass density
Settings: 1 year; 60 mg/day raloxifene, 10 mg/day alendronate; 331 patients

SMILES: NCCCC(O)(P(=O)(O)O)P(=O)(O)O [alendronate]
- improvement in femoral bone mass density: 2.7%
